Measured values from PMC11053938.
These are yes or no findings as the source states them, for the method shown. Some binding calls cover weakened binding; strength is not graded here.

Amino acid sequences for entries named in this document (tags omitted). A change or cut given only in a name is not applied to a line headed by its entry. Residues count along the entry.
UniProt P01024: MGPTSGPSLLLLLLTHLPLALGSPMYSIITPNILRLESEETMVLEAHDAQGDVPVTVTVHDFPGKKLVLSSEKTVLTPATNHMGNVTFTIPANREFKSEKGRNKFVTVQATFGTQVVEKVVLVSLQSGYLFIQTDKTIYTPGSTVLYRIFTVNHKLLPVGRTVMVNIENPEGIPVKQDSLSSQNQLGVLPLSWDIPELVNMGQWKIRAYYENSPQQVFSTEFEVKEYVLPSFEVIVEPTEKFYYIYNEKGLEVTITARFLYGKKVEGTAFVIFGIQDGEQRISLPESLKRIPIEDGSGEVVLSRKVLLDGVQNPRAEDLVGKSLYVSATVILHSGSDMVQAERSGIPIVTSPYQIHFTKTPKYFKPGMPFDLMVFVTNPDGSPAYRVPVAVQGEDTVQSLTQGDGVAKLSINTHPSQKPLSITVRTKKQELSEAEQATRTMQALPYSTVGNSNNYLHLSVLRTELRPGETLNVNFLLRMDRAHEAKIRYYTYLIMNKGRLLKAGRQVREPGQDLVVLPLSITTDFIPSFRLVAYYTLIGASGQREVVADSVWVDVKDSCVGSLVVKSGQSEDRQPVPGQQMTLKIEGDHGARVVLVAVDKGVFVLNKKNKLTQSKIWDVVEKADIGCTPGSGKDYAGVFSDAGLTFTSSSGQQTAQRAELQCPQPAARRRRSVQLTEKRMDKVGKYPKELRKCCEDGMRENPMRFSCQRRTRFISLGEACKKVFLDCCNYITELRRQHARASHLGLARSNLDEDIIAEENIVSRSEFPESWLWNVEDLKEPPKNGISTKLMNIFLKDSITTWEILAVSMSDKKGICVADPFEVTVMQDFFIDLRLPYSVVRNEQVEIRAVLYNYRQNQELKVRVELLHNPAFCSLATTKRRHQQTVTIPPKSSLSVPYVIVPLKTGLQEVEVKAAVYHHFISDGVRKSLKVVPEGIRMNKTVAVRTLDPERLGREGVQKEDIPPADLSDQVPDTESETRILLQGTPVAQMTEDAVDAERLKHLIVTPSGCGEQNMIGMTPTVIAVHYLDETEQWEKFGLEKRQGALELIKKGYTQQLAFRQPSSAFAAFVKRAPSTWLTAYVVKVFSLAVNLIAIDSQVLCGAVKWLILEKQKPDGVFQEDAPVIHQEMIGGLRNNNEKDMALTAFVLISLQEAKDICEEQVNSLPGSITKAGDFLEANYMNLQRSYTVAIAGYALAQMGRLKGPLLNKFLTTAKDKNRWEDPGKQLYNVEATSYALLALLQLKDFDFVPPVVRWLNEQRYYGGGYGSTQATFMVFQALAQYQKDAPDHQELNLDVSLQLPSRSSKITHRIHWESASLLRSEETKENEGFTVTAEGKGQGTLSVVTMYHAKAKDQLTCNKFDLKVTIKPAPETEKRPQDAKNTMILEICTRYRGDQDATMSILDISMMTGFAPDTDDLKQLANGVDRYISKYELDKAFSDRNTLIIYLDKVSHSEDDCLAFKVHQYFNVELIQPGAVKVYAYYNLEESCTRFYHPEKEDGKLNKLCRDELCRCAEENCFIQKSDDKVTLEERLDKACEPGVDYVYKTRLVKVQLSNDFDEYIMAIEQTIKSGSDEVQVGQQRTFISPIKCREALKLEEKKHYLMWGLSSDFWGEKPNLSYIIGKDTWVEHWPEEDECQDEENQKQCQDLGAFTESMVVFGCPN
UniProt P08603, residues 19-1231: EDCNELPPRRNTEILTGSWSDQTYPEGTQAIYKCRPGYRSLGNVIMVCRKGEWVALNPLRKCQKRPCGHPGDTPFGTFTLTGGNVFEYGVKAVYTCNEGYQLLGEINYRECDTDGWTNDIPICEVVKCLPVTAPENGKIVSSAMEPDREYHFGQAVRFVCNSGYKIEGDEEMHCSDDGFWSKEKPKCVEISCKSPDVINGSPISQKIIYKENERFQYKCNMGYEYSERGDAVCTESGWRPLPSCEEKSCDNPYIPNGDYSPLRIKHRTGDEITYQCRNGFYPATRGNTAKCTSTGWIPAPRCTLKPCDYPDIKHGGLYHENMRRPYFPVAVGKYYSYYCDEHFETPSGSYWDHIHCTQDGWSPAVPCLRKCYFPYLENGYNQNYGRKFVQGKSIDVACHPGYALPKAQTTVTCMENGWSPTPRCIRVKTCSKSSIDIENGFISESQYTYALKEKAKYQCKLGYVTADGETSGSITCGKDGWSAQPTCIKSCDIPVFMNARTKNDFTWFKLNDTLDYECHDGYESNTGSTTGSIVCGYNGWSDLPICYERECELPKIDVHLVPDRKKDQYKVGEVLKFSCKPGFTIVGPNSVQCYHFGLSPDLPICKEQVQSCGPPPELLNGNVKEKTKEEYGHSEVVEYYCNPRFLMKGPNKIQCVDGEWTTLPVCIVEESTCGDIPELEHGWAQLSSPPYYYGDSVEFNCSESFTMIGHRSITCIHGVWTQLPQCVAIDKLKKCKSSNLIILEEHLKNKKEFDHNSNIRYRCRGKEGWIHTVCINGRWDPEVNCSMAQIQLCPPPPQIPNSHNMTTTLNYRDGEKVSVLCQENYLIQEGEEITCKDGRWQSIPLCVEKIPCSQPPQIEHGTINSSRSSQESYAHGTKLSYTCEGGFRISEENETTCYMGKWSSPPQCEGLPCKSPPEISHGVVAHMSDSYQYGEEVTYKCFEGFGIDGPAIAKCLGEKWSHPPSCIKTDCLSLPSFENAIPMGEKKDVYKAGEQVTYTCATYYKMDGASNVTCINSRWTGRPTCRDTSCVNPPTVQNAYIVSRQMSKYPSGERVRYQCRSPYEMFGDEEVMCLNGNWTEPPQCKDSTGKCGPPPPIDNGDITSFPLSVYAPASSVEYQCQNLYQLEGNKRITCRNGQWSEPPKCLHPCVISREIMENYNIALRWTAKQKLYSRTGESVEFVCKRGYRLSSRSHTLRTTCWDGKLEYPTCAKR

Target: C3b (UniProt P01024)
Assay: SPR; Biacore; C3b immobilised to Fc2 at 1600 RU and Fc3 at 1450 RU and 950 RU; human CFH at 200 nM/100 nM, alone or with PolySia-NP at 1:20 dilution (10 min room temperature incubation); buffer alone as control; both purified

human complement factor H (from UniProt P08603 19-1231)
binding: binds
